{"source": "paper PMC12569429", "system": "GST-PtABI3_B3 (Pinus tabuliformis)", "experiment": "EMSA", "settings": "EMSA with Beyotime GS009 chemiluminescent kit; pH and temperature not stated; recombinant protein; protein details: N-terminal GST (pGEX-4T-1)", "note": "For at least one entry, the source does not settle the construct or the ends of the probe.", "data": [{"sequence": "GAATCATTTGGGTCATGCATCCTATGCATGCTCATCGAT (double strand) [PtDAL1-RY probe]", "values": [{"measurement": "binding result", "result": "binds"}]}]}
